Assay results from patent US12521402B2, “Biomarker and drug combinations for heart failure prediction” (Endothelium Scanning Nanotechnology Limited, priority 2022, dated 2026).

B1: SARNP (protein, UniProt P82979 2-210, looked up)
SAP domain-containing …: ATETVELHKLKLAELKQECLARGLETKGIKQDLIHRLQAYLEEHAEEEANEEDVLGDETEEEETKPIELPVKEEEPPEKTVDVAAEKKVVKITSEIPQTERMQKRAERFNVPVSLESKKAARAARFGISSVPTKGLSSDNKPMVNLDKLKERAQRFGLNVSSISRKSEDDEKLKKRKERFGIVTSSAGTGTTEDTEAKKRKRAERFGIA
B2: UBE2K (protein, UniProt P61086 2-200, looked up)
Ubiquitin-conjugating enzyme …: ANIAVQRIKREFKEVLKSEETSKNQIKVDLVDENFTELRGEIAGPPDTPYEGGRYQLEIKIPETYPFNPPKVRFITKIWHPNISSVTGAICLDILKDQWAAAMTLRTVLLSLQALLAAAEPDDPQDAVVANQYKQNPEMFKQTARLWAHVYAGAPVSSPEYTKKIENLCAMGFDRNAVIVALSSKSWDVETATELLLSN
B3: CYTA (protein, UniProt P01040 1-98, looked up)
Cystatin-A: MIPGGLSEAKPATPEIQEIVDKVKPQLEEKTNETYGKLEAVQYKTQVVAGTNYYIKVRAGDNKYMHLKVFKSLPGQNEDLVLTGYQVDKNKDDELTGF
B4: TBC13 (protein, UniProt Q9NVG8 1-400, looked up)
TBC1 domain family member 13: MSSLHKSRIADFQDVLKEPSIALEKLRELSFSGIPCEGGLRCLCWKILLNYLPLERASWTSILAKQRELYAQFLREMIIQPGIAKANMGVSREDVTFEDHPLNPNPDSRWNTYFKDNEVLLQIDKDVRRLCPDISFFQRATDYPCLLILDPQNEFETLRKRVEQTTLKSQTVARNRSGVTNMSSPHKNSVPSSLNEYEVLPNGCEAHWEVVERILFIYAKLNPGIAYVQGMNEIVGPLYYTFATDPNSEWKEHAEADTFFCFTNLMAEIRDNFIKSLDDSQCGITYKMEKVYSTLKDKDVELYLKLQEQNIKPQFFAFRWLTLLLSQEFLLPDVIRIWDSLFADDNRFDFLLLVCCAMLMLIREQLLEGDFTVNMRLLQDYPITDVCQILQKAKELQDSK
B5: AMD (protein, UniProt P19021 31-973, looked up)
Peptidyl-glycine …: FKETTRPFSNECLGTTRPVVPIDSSDFALDIRMPGVTPKQSDTYFCMSMRIPVDEEAFVIDFKPRASMDTVHHMLLFGCNMPSSTGSYWFCDEGTCTDKANILYAWARNAPPTRLPKGVGFRVGGETGSKYFVLQVHYGDISAFRDNNKDCSGVSLHLTRLPQPLIAGMYLMMSVDTVIPAGEKVVNSDISCHYKNYPMHVFAYRVHTHHLGKVVSGYRVRNGQWTLIGRQSPQLPQAFYPVGHPVDVSFGDLLAARCVFTGEGRTEATHIGGTSSDEMCNLYIMYYMEAKHAVSFMTCTQNVAPDMFRTIPPEANIPIPVKSDMVMMHEHHKETEYKDKIPLLQQPKREEEEVLDQGDFYSLLSKLLGEREDVVHVHKYNPTEKAESESDLVAEIANVVQKKDLGRSDAREGAEHERGNAILVRDRIHKFHRLVSTLRPPESRVFSLQQPPPGEGTWEPEHTGDFHMEEALDWPGVYLLPGQVSGVALDPKNNLVIFHRGDHVWDGNSFDSKFVYQQIGLGPIEEDTILVIDPNNAAVLQSSGKNLFYLPHGLSIDKDGNYWVTDVALHQVFKLDPNNKEGPVLILGRSMQPGSDQNHFCQPTDVAVDPGTGAIYVSDGYCNSRIVQFSPSGKFITQWGEESSGSSPLPGQFTVPHSLALVPLLGQLCVADRENGRIQCFKTDTKEFVREIKHSSFGRNVFAISYIPGLLFAVNGKPHFGDQEPVQGFVMNFSNGEIIDIFKPVRKHFDMPHDIVASEDGTVYIGDAHTNTVWKFTLTEKLEHRSVKKAGIEVQEIKEAEAVVETKMENKPTSSELQKMQEKQKLIKEPGSGVPVVLITTLLVIPVVVLLAIAIFIRWKKSRAFGDSEHKLETSSGRVLGRFRGKGSGGLNLGNFFASRKGYSRKGFDRLSTEGSDQEKEDDGSESEEEYSAPLPALAPSSS
B6: EFC14 (protein, UniProt O75071 1-495, looked up)
EF-hand calcium-binding …: MKKRKELNALIGLAGDSRRKKPKKGPSSHRLLRTEPPDSDSESSSEEEEEFGVVGNRSRFAKGDYLRCCKICYPLCGFVILAACVVACVGLVWMQVALKEDLDALKEKFRTMESNQKSSFQEIPKLNEELLSKQKQLEKIESGEMGLNKVWINITEMNKQISLLTSAVNHLKANVKSAADLISLPTTVEGLQKSVASIGNTLNSVHLAVEALQKTVDEHKKTMELLQSDMNQHFLKETPGSNQIIPSPSATSELDNKTHSENLKQDILYLHNSLEEVNSALVGYQRQNDLKLEGMNETVSNLTQRVNLIESDVVAMSKVEKKANLSFSMMGDRSATLKRQSLDQVTNRTDTVKIQSIKKEDSSNSQVSKLREKLQLISALTNKPESNRPPETADEEQVESFTSKPSALPKFSQFLGDPVEKAAQLRPISLPGVSSTEDLQDLFRKTGQDVDGKLTYQEIWTSLGSAMPEPESLRAFDSDGDGRYSFLELRVALGI
B7: STAU1 (protein, UniProt O95793 2-577, looked up)
Double-stranded RNA-binding …: SQVQVQVQNPSAALSGSQILNKNQSLLSQPLMSIPSTTSSLPSENAGRPIQNSALPSASITSTSAAAESITPTVELNALCMKLGKKPMYKPVDPYSRMQSTYNYNMRGGAYPPRYFYPFPVPPLLYQVELSVGGQQFNGKGKTRQAAKHDAAAKALRILQNEPLPERLEVNGRESEEENLNKSEISQVFEIALKRNLPVNFEVARESGPPHMKNFVTKVSVGEFVGEGEGKSKKISKKNAAIAVLEELKKLPPLPAVERVKPRIKKKTKPIVKPQTSPEYGQGINPISRLAQIQQAKKEKEPEYTLLTERGLPRRREFVMQVKVGNHTAEGTGTNKKVAKRNAAENMLEILGFKVPQAQPTKPALKSEEKTPIKKPGDGRKVTFFEPGSGDENGTSNKEDEFRMPYLSHQQLPAGILPMVPEVAQAVGVSQGHHTKDFTRAAPNPAKATVTAMIARELLYGGTSPTAETILKNNISSGHVPHGPLTRPSEQLDYLSRVQGFQVEYKDFPKNNKNEFVSLINCSSQPPLISHGIGKDVESCHDMAALNILKLLSELDQQSTEMPRTGNGPMSVCGRC
B8: BAF (protein, UniProt O75531 1-89, looked up)
Barrier-to-autointegration …: MTTSQKHRDFVAEPMGEKPVGSLAGIGEVLGKKLEERGFDKAYVVLGQFLVLKKDEDLFREWLKDTCGANAKQSRDCFGCLREWCDAFL
B9: ANGT (protein, UniProt P01019 25-476, looked up)
Angiotensinogen: DRVYIHPFHLVIHNESTCEQLAKANAGKPKDPTFIPAPIQAKTSPVDEKALQDQLVLVAAKLDTEDKLRAAMVGMLANFLGFRIYGMHSELWGVVHGATVLSPTAVFGTLASLYLGALDHTADRLQAILGVPWKDKNCTSRLDAHKVLSALQAVQGLLVAQGRADSQAQLLLSTVVGVFTAPGLHLKQPFVQGLALYTPVVLPRSLDFTELDVAAEKIDRFMQAVTGWKTGCSLMGASVDSTLAFNTYVHFQGKMKGFSLLAEPQEFWVDNSTSVSVPMLSGMGTFQHWSDIQDNFSVTQVPFTESACLLLIQPHYASDLDKVEGLTFQQNSLNWMKKLSPRTIHLTMPQLVLQGSYDLQDLLAQAELPAILHTELNLQKLSNDRIRVGEVLNSIFFELEADEREPTESTQQLNKPEVLEVTLNRPFLFAVYDQSATALHFLGRVANPLSTA
B10: T132A (protein, UniProt Q24JP5 36-1023, looked up)
Transmembrane protein 132A: CGQAPLDPVYLPAALELLDAPEHFRVQQVGHYPPANSSLSSRSETFLLLQPWPRAQPLLRASYPPFATQQVVPPRVTEPHQRPVPWDVRAVSVEAAVTPAEPYARVLFHLKGQDWPPGSGSLPCARLHATHPAGTAHQACRFQPSLGACVVELELPSHWFSQASTTRAELAYTLEPAAEGPGGCGSGEENDPGEQALPVGGVELRPADPPQYQEVPLDEAVTLRVPDMPVRPGQLFSATLLLRHNFTASLLTLRIKVKKGLHVTAARPAQPTLWTAKLDRFKGSRHHTTLITCHRAGLTEPDSSPLELSEFLWVDFVVENSTGGGVAVTRPVTWQLEYPGQAPEAEKDKMVWEILVSERDIRALIPLAKAEELVNTAPLTGVPQHVPVRLVTVDGGGALVEVTEHVGCESANTQVLQVSEACDAVFVAGKESRGARGVRVDFWWRRLRASLRLTVWAPLLPLRIELTDTTLEQVRGWRVPGPAEGPAEPAAEASDEAERRARGCHLQYQRAGVRFLAPFAAHPLDGGRRLTHLLGPDWLLDVSHLVAPHARVLDSRVASLEGGRVVVGREPGVTSIEVRSPLSDSILGEQALAVTDDKVSVLELRVQPVMGISLTLSRGTAHPGEVTATCWAQSALPAPKQEVALSLWLSFSDHTVAPAELYDRRDLGLSVSAEEPGAILPAEEQGAQLGVVVSGAGAEGLPLHVALHPPEPCRRGRHRVPLASGTAWLGLPPASTPAPALPSSPAWSPPATEATMGGKRQVAGSVGGNTGVRGKFERAEEEARKEETEAREEEEEEEEEMVPAPQHVTELELGMYALLGVFCVAIFIFLVNGVVFVLRYQRKEPPDSATDPTSPQPHNWVWLGTDQEELSRQLDRQSPGPPKGEGSCPCESGGGGEAPTLAPGPPGGTTSSSSTLARKEAGGRRKRVEFVTFAPAPPAQSPEEPVGAPAVQSILVAGEEDIRWVCEDMGLKDPEELRNYMERIRGSS

Assay: Saliva proteomics: biomarker quantification by mass spectrometry SWATH in participants at risk of heart failure vs controls
Design: species or system human
Details: differential expression (fold) control vs 'at risk' group, saliva

Row | Molecule | Control vs Risk
1 | B1 | 2.21
2 | B2 | 2.19
3 | B3 | 2.17
4 | B4 | 2.16
5 | B5 | 2.14
6 | B6 | 2.03
7 | B7 | 2.02
8 | B8 | 2.01
9 | B9 | 2.00
10 | B10 | 1.98

Same assay, conditions: saliva, 'at risk' of heart failure group mean, mass spectrometry SWATH quantification, 20 samples

Row | Molecule | AtRisk average
11 | B1 | 96,270 ng/ml
12 | B2 | 50,294 ng/ml
13 | B3 | 968,059 ng/ml
14 | B4 | 20,263 ng/ml
15 | B5 | 618,430 ng/ml
16 | B6 | 46,304 ng/ml
17 | B7 | 25,481 ng/ml
18 | B8 | 50,325 ng/ml
19 | B9 | 102,940 ng/ml
20 | B10 | 71,196 ng/ml

Same assay, conditions: saliva, control group mean, mass spectrometry SWATH quantification, 20 samples

Row | Molecule | Control average
21 | B1 | 213,117 ng/ml
22 | B2 | 22,994 ng/ml
23 | B3 | 446,666 ng/ml
24 | B4 | 43,672 ng/ml
25 | B5 | 1,321,341 ng/ml
26 | B6 | 22,803 ng/ml
27 | B7 | 51,349 ng/ml
28 | B8 | 25,077 ng/ml
29 | B9 | 51,445 ng/ml
30 | B10 | 141,239 ng/ml
